{"source": "PubChem BioAssay AID686938 (Drosophila RNAi Screening Center, 2013)", "purpose": "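Knock-downs reducing store-operated calcium influx in Drosophila cells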 (primary screen)", "cell system": "Drosophila S2R+ cells", "reagent": "long dsRNA against Drosophila genes, about 0.25 µg dsRNA per well, roughly 10,000 cells", "time to read-out": "5 days of knock-down before the calcium assay", "conditions": "thapsigargin (SERCA pump blocker) to empty calcium stores; entry signal taken 4 min after adding it", "read-out": "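Per-well fluo-4 fluorescence in two replicates, unnormalised, measured in resting cells and 4 min after store depletion by the SERCA blocker thapsigargin; ratio of the two present in few wells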", "direction": "calcium entry signal: higher = stronger calcium signal after store depletion; resting calcium signal: higher = higher resting calcium signal", "call rule": "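Hit if the duplicate-averaged plate z-score for entry over resting signal is under −3; wells with weak total dye signal (Fmax z < −2) or more than 5 off-targets removed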", "calls": "active = strongly reduced calcium entry; inactive = no strong reduction", "note": "The screen tested about 23,000 reagents; shown is an unselected part of those that have a named target and a result. Of all reagents, 75 (0.33%) got an active call. 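Raw plate signals without normalisation; calls rest on plate z-scores that were not deposited; ratio present for only 364 wells.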 Unmarked entries are inactive. Reagent sequences are not shown. The record does not give: the dose of the treatment."}
{"gene knocked down": "CG13694", "DRSC id": "DRSC00363", "calcium entry signal, replicate 1 (fluorescence units)": 4.44e7, "calcium entry signal, replicate 2 (fluorescence units)": 4.83e7, "resting calcium signal, replicate 1 (fluorescence units)": 2.05e7, "resting calcium signal, replicate 2 (fluorescence units)": 2.17e7}
{"gene knocked down": "PNPase", "DRSC id": "DRSC14304", "calcium entry signal, replicate 1 (fluorescence units)": 1.99e7, "calcium entry signal, replicate 2 (fluorescence units)": 2.76e7, "resting calcium signal, replicate 1 (fluorescence units)": 9.26e6, "resting calcium signal, replicate 2 (fluorescence units)": 1.29e7}
{"gene knocked down": "CG17528", "DRSC id": "DRSC07761", "calcium entry signal, replicate 1 (fluorescence units)": 2.92e7, "calcium entry signal, replicate 2 (fluorescence units)": 3.67e7, "resting calcium signal, replicate 1 (fluorescence units)": 1.42e7, "resting calcium signal, replicate 2 (fluorescence units)": 1.51e7}
{"gene knocked down": "CCDC53", "DRSC id": "DRSC03056", "calcium entry signal, replicate 1 (fluorescence units)": 3.63e7, "calcium entry signal, replicate 2 (fluorescence units)": 5.38e7, "resting calcium signal, replicate 1 (fluorescence units)": 1.72e7, "resting calcium signal, replicate 2 (fluorescence units)": 2.32e7}
{"gene knocked down": "CG8414", "DRSC id": "DRSC07168", "calcium entry signal, replicate 1 (fluorescence units)": 2.61e7, "calcium entry signal, replicate 2 (fluorescence units)": 3.53e7, "resting calcium signal, replicate 1 (fluorescence units)": 1.31e7, "resting calcium signal, replicate 2 (fluorescence units)": 1.76e7}
{"gene knocked down": "CG10337", "DRSC id": "DRSC02038", "calcium entry signal, replicate 1 (fluorescence units)": 5.80e7, "calcium entry signal, replicate 2 (fluorescence units)": 4.72e7, "resting calcium signal, replicate 1 (fluorescence units)": 2.75e7, "resting calcium signal, replicate 2 (fluorescence units)": 1.95e7}
{"gene knocked down": "CR32733", "DRSC id": "DRSC17481", "calcium entry signal, replicate 1 (fluorescence units)": 3.41e7, "calcium entry signal, replicate 2 (fluorescence units)": 3.74e7, "resting calcium signal, replicate 1 (fluorescence units)": 1.68e7, "resting calcium signal, replicate 2 (fluorescence units)": 1.76e7}
{"gene knocked down": "EMC2B", "DRSC id": "DRSC15506", "calcium entry signal, replicate 1 (fluorescence units)": 2.70e7, "calcium entry signal, replicate 2 (fluorescence units)": 4.18e7, "resting calcium signal, replicate 1 (fluorescence units)": 1.33e7, "resting calcium signal, replicate 2 (fluorescence units)": 4.97e7}
{"gene knocked down": "CG15458", "DRSC id": "DRSC20529", "calcium entry signal, replicate 1 (fluorescence units)": 4.98e7, "calcium entry signal, replicate 2 (fluorescence units)": 4.79e7, "resting calcium signal, replicate 1 (fluorescence units)": 2.27e7, "resting calcium signal, replicate 2 (fluorescence units)": 1.93e7}
{"gene knocked down": "Nup188", "DRSC id": "DRSC21830", "calcium entry signal, replicate 1 (fluorescence units)": 3.23e7, "calcium entry signal, replicate 2 (fluorescence units)": 3.25e7, "resting calcium signal, replicate 1 (fluorescence units)": 2.00e7, "resting calcium signal, replicate 2 (fluorescence units)": 1.65e7}
{"gene knocked down": "Grip84", "DRSC id": "DRSC20248", "calcium entry signal, replicate 1 (fluorescence units)": 2.98e7, "calcium entry signal, replicate 2 (fluorescence units)": 2.62e7, "resting calcium signal, replicate 1 (fluorescence units)": 1.95e7, "resting calcium signal, replicate 2 (fluorescence units)": 1.26e7}
{"gene knocked down": "mRpS30", "DRSC id": "DRSC20107", "calcium entry signal, replicate 1 (fluorescence units)": 3.70e7, "calcium entry signal, replicate 2 (fluorescence units)": 4.42e7, "resting calcium signal, replicate 1 (fluorescence units)": 1.54e7, "resting calcium signal, replicate 2 (fluorescence units)": 1.82e7}
{"gene knocked down": "Wdr92", "DRSC id": "DRSC10187", "calcium entry signal, replicate 1 (fluorescence units)": 4.22e7, "calcium entry signal, replicate 2 (fluorescence units)": 7.13e7, "resting calcium signal, replicate 1 (fluorescence units)": 2.20e7, "resting calcium signal, replicate 2 (fluorescence units)": 2.82e7}
{"gene knocked down": "vanin-like", "DRSC id": "DRSC17440", "calcium entry signal, replicate 1 (fluorescence units)": 2.98e7, "calcium entry signal, replicate 2 (fluorescence units)": 3.48e7, "resting calcium signal, replicate 1 (fluorescence units)": 1.49e7, "resting calcium signal, replicate 2 (fluorescence units)": 1.67e7}
{"gene knocked down": "CG13018", "DRSC id": "DRSC06274", "calcium entry signal, replicate 1 (fluorescence units)": 3.46e7, "calcium entry signal, replicate 2 (fluorescence units)": 3.56e7, "resting calcium signal, replicate 1 (fluorescence units)": 1.65e7, "resting calcium signal, replicate 2 (fluorescence units)": 1.65e7}
{"gene knocked down": "l(2)gl", "DRSC id": "DRSC00825", "calcium entry signal, replicate 1 (fluorescence units)": 3.75e7, "calcium entry signal, replicate 2 (fluorescence units)": 2.58e7, "resting calcium signal, replicate 1 (fluorescence units)": 1.93e7, "resting calcium signal, replicate 2 (fluorescence units)": 1.33e7}
{"gene knocked down": "HDAC11", "DRSC id": "DRSC14280", "calcium entry signal, replicate 1 (fluorescence units)": 3.17e7, "calcium entry signal, replicate 2 (fluorescence units)": 3.06e7, "resting calcium signal, replicate 1 (fluorescence units)": 1.48e7, "resting calcium signal, replicate 2 (fluorescence units)": 1.43e7}
{"gene knocked down": "Cpr97Ea", "DRSC id": "DRSC15974", "calcium entry signal, replicate 1 (fluorescence units)": 3.23e7, "calcium entry signal, replicate 2 (fluorescence units)": 5.42e7, "resting calcium signal, replicate 1 (fluorescence units)": 1.70e7, "resting calcium signal, replicate 2 (fluorescence units)": 2.35e7}
{"gene knocked down": "CalpC", "DRSC id": "DRSC19873", "calcium entry signal, replicate 1 (fluorescence units)": 3.83e7, "calcium entry signal, replicate 2 (fluorescence units)": 2.30e7, "resting calcium signal, replicate 1 (fluorescence units)": 1.95e7, "resting calcium signal, replicate 2 (fluorescence units)": 1.14e7}
{"gene knocked down": "CG13631", "DRSC id": "DRSC14632", "calcium entry signal, replicate 1 (fluorescence units)": 4.81e7, "calcium entry signal, replicate 2 (fluorescence units)": 4.22e7, "resting calcium signal, replicate 1 (fluorescence units)": 2.28e7, "resting calcium signal, replicate 2 (fluorescence units)": 1.88e7}
{"gene knocked down": "CG13631", "DRSC id": "DRSC23168", "calcium entry signal, replicate 1 (fluorescence units)": 2.95e7, "calcium entry signal, replicate 2 (fluorescence units)": 3.06e7, "resting calcium signal, replicate 1 (fluorescence units)": 1.34e7, "resting calcium signal, replicate 2 (fluorescence units)": 1.31e7}

Part of the list above, set out differently:
gene knocked down,DRSC id,"calcium entry signal, replicate 1 (fluorescence units)","calcium entry signal, replicate 2 (fluorescence units)","resting calcium signal, replicate 1 (fluorescence units)","resting calcium signal, replicate 2 (fluorescence units)"
Wdr92,DRSC10187,4.22e7,7.13e7,2.20e7,2.82e7
vanin-like,DRSC17440,2.98e7,3.48e7,1.49e7,1.67e7
